Measured values as given in PubChem BioAssay AID1347076 (National Center for Advancing Translational Sciences (NCATS), 2019).
Screen size: about 400,000 compounds; about 13,000 (3.2%) were called active. The shares of active, inactive and inconclusive entries below differ from those in the screen. Calls come from the whole dose curve; as a rule, active = well fitted cell-killing curve with a large enough effect; inconclusive = small, poorly fitted or top-dose-only effect, or effect the other way; inactive = flat fitted curve, though single readings scatter. Where the call is inconclusive, the potency comes from a doubtful curve fit.

Assay: qHTS assay for MDR1-selective chemotherapeutics: Primary screen using the drug-selected MDR subline cells KB-V1; note: nearly all actives have a fitted effect of over 60% in size
Conditions: KB-V1 MDR cells viability, CellTiter-Glo, 72 h; activity change, negative = cytotoxicity: at 46.1 µM (top of the series)
Method in brief: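 Compound-treated KB-V1 multidrug-resistant cells, 72 h, 37 degrees C; viability by CellTiter-Glo. Fitted qHTS curves give the values.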
% is set by controls: 0 for no effect and ±100 for the full control effect; potency is the fitted concentration of half-maximal effect.

Row | SMILES | Potency | activity change, negative = cytotoxicity
1 | CN(CCc1nc2ccc(Cl)cc2[nH]1)Cc1nc(CC2CC2)no1 | inconclusive: 7.31 µM [cytotoxic, partial curve] | 
2 | O=C(NCCC(=O)N1CCN(S(=O)(=O)c2ccc(F)cc2)CC1)Nc1ccccc1 |  | inactive: 0%
3 | Cc1cccc(-n2c(C)cc(/C=N/n3cnnc3)c2C)c1 | active: 18.4 µM | 
4 | O=c1cc(N2CCCCC2)c(-c2ccccc2)n[nH]1 |  | inactive: -8.45%
5 | O=C(CCCN=C1NS(=O)(=O)c2ccccc21)OCC(=O)c1ccc(F)cc1 | inconclusive: 6.51 µM [rising, full curve, poor fit] | 
6 | CS(=O)(=O)N1CCN(Cc2cc3nc(-c4cccc5[nH]ncc45)nc(N4CCOCC4)c3s2)CC1 | inconclusive: 25.1 µM [cytotoxic, partial curve, poor fit] | 
7 | COCCNC(=S)NNC(=O)c1cccs1 | inconclusive: 5.17 µM [rising, full curve] | 
8 | Cc1ccc(-c2ccc(CCC(=O)O)n2NC(=O)c2ccc([N+](=O)[O-])cc2)cc1 | inconclusive: 18.4 µM [rising, single point] | 
9 | COc1ccc(C(=O)Nc2ccc(S(=O)(=O)Nc3cc(C)nc(C)n3)cc2)cc1OC | inconclusive: 29.1 µM [rising, single point] | 
10 | COc1ccc(CN2CCN(Cc3cccc4nonc34)CC2CCO)c(C)c1C (centres undefined) | inconclusive: 2.91 µM [cytotoxic, partial curve, poor fit] | 
11 | Cc1onc(-c2c(F)cccc2Cl)c1-c1nnc(-c2ccc(C(F)(F)F)cc2)o1 | inconclusive: 29.1 µM [cytotoxic, single point] | 
12 | CN(C(=O)C1CCC(=O)N(Cc2ccccc2F)C1)C1CCOCC1 (centres undefined) |  | inactive: 20.2%
13 | O=C(c1ccco1)N1CCN(c2ccc([N+](=O)[O-])cc2Cl)CC1 | inconclusive: 18.4 µM [cytotoxic, partial curve, poor fit] | 
14 | COc1ccc(-c2csc(N)n2)cc1F | inconclusive: 18.4 µM [rising, single point] | 
15 | Cc1cnc(CN2CCCC(C(=O)c3ccc4c5c(cccc35)CC4)C2)[nH]1 (centres undefined) | inconclusive: 23.1 µM [cytotoxic, single point] | 
16 | Nc1ncnc2c1ncn2[C@H]1C[C@H](O)[C@@H](COP(=O)(O)O)O1 | inconclusive: 29.1 µM [rising, single point] | 
17 | CC1=NN(C(N)=S)C(=O)C1N=Nc1ccccc1[N+](=O)[O-] (centres undefined) |  | inactive: 4.07%
18 | CCCN(C)C1CN(Cc2cn(Cc3cc(C)cc(C)c3)nn2)S(=O)(=O)C1 (centres undefined) |  | inactive: 0%
19 | COc1ccc(N2CCN(S(=O)(=O)c3ccc(C4CCCCC4)cc3)CC2)cc1 |  | inactive: -6.65%
20 | COC(=O)[C@]1(CC(C)C)N[C@H](c2ccc(-c3ccc(F)cc3)cc2)[C@@H]2C(=O)N(C)C(=O)[C@@H]21 | inconclusive: 29.1 µM [cytotoxic, single point] | 
21 | Cc1[nH]c2ccccc2c1/C=C/c1nc2ccccc2c(=O)[nH]1 | inconclusive: 29.1 µM [cytotoxic, single point] | 
22 | Oc1ccccc1-c1nc2cnccn2c1Nc1ccc2c(c1)OCCO2 | inconclusive: 20.6 µM [cytotoxic, single point] | 
23 | O=C1C2CCCCC2C(=O)N1c1ccc(NC2CCN(Cc3ccccc3)CC2)c([N+](=O)[O-])c1 (centres undefined) | inconclusive: 14.6 µM [cytotoxic, partial curve, poor fit] | 

Row | SMILES | Potency | activity change, negative = cytotoxicity
24 | Cc1ccc(OCC(=O)Nc2nnc(S(=O)(=O)N3CCc4ccccc43)s2)cc1 | inconclusive: 20.6 µM [rising, single point] | 
25 | Cc1c(Br)c(C(=O)NCc2cc3cc(Cl)ccc3[nH]2)nn1C |  | inactive: 0.161%
26 | CCc1nc(Sc2nnnn2-c2ccccc2)c2c3c(sc2n1)CCCC3 | inconclusive: 20.6 µM [cytotoxic, single point] | 
27 | CS(=O)(=O)N(CC(=O)NCCSCc1c(F)cccc1Cl)c1cccc([N+](=O)[O-])c1 | inconclusive: 32.6 µM [cytotoxic, single point] | 
28 | CC(C)c1ccc2c(c1)NC(c1ccc(F)cc1)=NC(c1cccs1)=N2 | inconclusive: 29.1 µM [cytotoxic, single point] | 
29 | C[C@@H]1CCC(=O)N(CC[C@H](Sc2ccccc2)c2ccccc2)CC1 | inconclusive: 9.2 µM [cytotoxic, partial curve] | 
30 | COc1cccc(C(=O)Nc2cc(NC(=O)c3cccs3)ccc2C)c1OC | inconclusive: 2.59 µM [cytotoxic, full curve] | 
31 | COc1ccc(Nc2cc(C)c3cc(NC(=O)c4ccccc4Cl)ccc3n2)cc1 | active: 18.4 µM | 
32 | CCN(CC)S(=O)(=O)c1cc(C(=O)Oc2cccc(-c3cnc4ccccc4n3)c2)ccc1OC | inconclusive: 29.1 µM [cytotoxic, single point] | 
33 | COc1ccc(S(=O)(=O)NCC(c2cccs2)N2CCc3ccccc3C2)cc1 (centres undefined) | inconclusive: 5.17 µM [cytotoxic, partial curve] | 
34 | CC(C)c1ccc2[nH]c(O)c(N=NC(=O)c3cccc(S(=O)(=O)N4CCCCC4)c3)c2c1 | active: 2.31 µM | 
35 | CNC(=O)c1[nH]cnc1C(=O)N[C@@H](CCCCNC(=O)OC(C)(C)C)C(=O)OC(C)(C)C |  | inactive: -4.03%
36 | O=C(NCCCN1CCOCC1)c1ccc2c(c1)N(Cc1c(F)cccc1Cl)C(=O)c1ccccc1S2 |  | inactive: -1.7%
37 | CCc1noc(C)c1C(=O)Oc1ccc(N(C)S(=O)(=O)c2ccc(C)c(C)c2)cc1 | inconclusive: 14.6 µM [cytotoxic, partial curve, poor fit] | 
38 | CCOc1ccc(Nc2nc3c(c(=O)[nH]2)CCCC3)cc1 | active: 18.4 µM | 
39 | COc1ccccc1Cc1c(-c2ccc(C#N)cc2)nc2ccc(Br)cn12 |  | inactive: -9.26%
40 | O=C(c1ccsc1)N1CCCC(N2CCN(c3ccccc3F)CC2)C1 (centres undefined) |  | inactive: 1.63%
41 | Cc1cc(NC(=O)c2cc(-c3ccc(O)cc3)on2)no1 | inconclusive: 29.1 µM [rising, single point] | 
42 | CCCCNC(=S)N1CCn2cccc2C1c1ccc(F)cc1 (centres undefined) | inconclusive: 20.6 µM [cytotoxic, single point] | 
43 | CCn1c(CNc2ccc(Cl)cc2)nnc1SCC(=O)OC1CCCCC1 |  | inactive: 6.03%
44 | COc1ccc(/C=C/CN2CCC(CO)(Cc3ccccc3Cl)CC2)cc1 | inconclusive: 8.2 µM [cytotoxic, partial curve] | 
45 | COc1ccc(S(=O)(=O)N2CCN(c3cnccn3)CC2)cc1OC | inconclusive: 29.1 µM [cytotoxic, single point] | 
46 | CC(O)(c1cccc(F)c1)c1nc(-c2cncnc2)cs1 (centres undefined) |  | inactive: 2.99%

Row | SMILES | Potency | activity change, negative = cytotoxicity
47 | Cc1ccccc1OCCCC(=O)NCc1ccco1 |  | inactive: 0.0037%
48 | COc1ccc(OC)c(NS(=O)(=O)c2ccc(NC(=O)c3ccc(NS(C)(=O)=O)cc3)cc2)c1 |  | inactive: -0.99%
49 | COc1ccc(N(C)S(=O)(=O)c2cccc(C(=O)NC3CCCC3)c2)cc1 | inconclusive: 23.1 µM [cytotoxic, partial curve] | 
50 | Cc1cc(Cl)cc(C)c1OCCCCCn1ccnc1 |  | inactive: -2.82%
51 | CCC(C)NCC(O)(c1ccc(Cl)cc1)c1ccc(Cl)cc1 (centres undefined) | inconclusive: 29.1 µM [cytotoxic, single point] | 
52 | CCSc1nc(N)c(C#N)c(-c2ccccc2Cl)c1C#N | active: 20.6 µM | 
53 | CCOc1ncccc1C(=O)Nc1ccc(-c2ccc3nnc(C)n3n2)cc1 | inconclusive: 0.184 µM [cytotoxic, full curve, poor fit] | 
54 | Cc1ccc(-c2nnn(CC(=O)Nc3ccc(S(=O)(=O)N4CCC(C)CC4)cc3)n2)cc1 | inconclusive: 5.8 µM [cytotoxic, full curve] | 
55 | CC(=O)Nc1ccc(S(=O)(=O)Nc2ccc(C)c([N+](=O)[O-])c2)cc1 | inconclusive: 1.16 µM [rising, full curve] | 
56 | Cc1ccc(C)c(OCc2cc(C(=O)NC3CCN(Cc4ccccc4)CC3)no2)c1 | inconclusive: 29.1 µM [cytotoxic, single point] | 
57 | CCOC(=O)/C=C1/SCC(=O)N1CC(=O)Nc1ccc2c(c1)CCC2 |  | inactive: -0.129%
58 | Cc1ccc2nc3c(cc(C#N)c(=O)n3-c3nnc(SCc4ccc(F)cc4)s3)c(=O)n2c1 |  | inactive: 8.48%
59 | COc1ccc(CCNC(=O)CCCCn2c(=O)c3ccccc3n(Cc3cc(C)ccc3C)c2=O)cc1OC | inconclusive: 29.1 µM [rising, single point] | 
60 | Cc1ccc(Sc2ccc(N3CCCC(C(=O)Nc4ccc(F)c(Cl)c4)C3)nn2)cc1 (centres undefined) |  | inactive: -1.56%
61 | COc1cc(/C=N/NC(=O)/C(=C/c2ccccc2)CCO)ccc1O |  | inactive: 2.54%
62 | CCCCCCCCCC[n+]1cc(Br)cc(Br)c1 |  | inactive: -1.12%
63 | CN(Cc1ccccc1)S(=O)(=O)c1ccc(Cl)c(C(=O)N2CCOCC2)c1 | inconclusive: 20.6 µM [cytotoxic, single point] | 
64 | COC(=O)C1=C(C)NC(C)=C(C(=O)OC)C1C(=O)OCC(=O)c1ccc(Br)cc1 |  | inactive: 2.34%
65 | O=C(CN(Cc1ccco1)C(=O)Cn1nnc(-c2cccs2)n1)NCc1ccccc1 | inconclusive: 8.2 µM [cytotoxic, partial curve] | 
66 | CCCn1c2ccccc2c2cnn(CC(=O)NCC3CCN(Cc4ccc(C)cc4)CC3)c(=O)c21 | inconclusive: 29.1 µM [cytotoxic, partial curve, poor fit] | 
67 | Cc1c(C(=O)NCc2ccccn2)sc2nc(-c3ccccc3)cn12 |  | inactive: 2.77%
68 | Cc1ccc(C)c(CN2CCC(CNC(=O)CCc3nnc4ccc(N5CCCCC5)nn34)CC2)c1 | inconclusive: 29.1 µM [rising, single point] | 
69 | CCN(C(=O)COC(=O)CCC(=O)c1cccs1)c1c(N)n(Cc2ccccc2)c(=O)[nH]c1=O | inconclusive: 18.4 µM [rising, partial curve, poor fit] | 
